IC50 data for one compound are collected here from patent US7544689B2, “Purine derivatives” (Cyclacel Limited, priority 2002, dated 2009).

In this assay the test system is representative panel of human transformed tumour cell lines. The experiment in a line: Average anti-proliferative activity in tumour cell line panel. Type of assay: cell-based. The conditions noted are these: read-out: average anti-proliferative IC50.

SMILES strings stand for the structures.

As usually defined, the IC50 is the concentration that gives 50% inhibition. On to `CC[C@H](CO)Nc1nc(NCc2ccccc2)c2ncn(C(C)C)c2n1` [Roscovitine, reference compound], for which the 50% inhibitory concentration (IC50) is roughly 10 µM.
